± gives the standard deviation of the averaged measurements. The list shows a part of the results, in another mix than the full data.
Compound: Nc1ncnc2c1ncn2[C@@H]1O[C@H](COP(=O)(O)OP(=O)(O)OP(=O)(O)O)[C@@H](O)[C@H]1O [adenosine triphosphate]
Experiment: NP40-soluble protein abundance relative to vehicle (solubility fold change) (ratio); higher = more soluble protein in presence of ATP
Summary of the method: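 Jurkat crude lysate (Dounce-homogenised) was treated with eight concentrations from 0.1 to 10 mM for 10 min at room temperature, then 3 min at 37 °C. It was solubilised with 0.8% NP40 and benzonase (60 min, 4 °C) and ultracentrifuged, and the supernatant was TMT-labelled for LC-MS/MS. Intensities were vsn-normalised, and the value is the fold change against the NP40-processed vehicle per replicate, from three independent experiments.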

Sequences of proteins named here, by UniProt entry; tags and fusion partners are left off. A change or cut given only in a name is not applied to a line headed by its entry.
UniProt Q13033: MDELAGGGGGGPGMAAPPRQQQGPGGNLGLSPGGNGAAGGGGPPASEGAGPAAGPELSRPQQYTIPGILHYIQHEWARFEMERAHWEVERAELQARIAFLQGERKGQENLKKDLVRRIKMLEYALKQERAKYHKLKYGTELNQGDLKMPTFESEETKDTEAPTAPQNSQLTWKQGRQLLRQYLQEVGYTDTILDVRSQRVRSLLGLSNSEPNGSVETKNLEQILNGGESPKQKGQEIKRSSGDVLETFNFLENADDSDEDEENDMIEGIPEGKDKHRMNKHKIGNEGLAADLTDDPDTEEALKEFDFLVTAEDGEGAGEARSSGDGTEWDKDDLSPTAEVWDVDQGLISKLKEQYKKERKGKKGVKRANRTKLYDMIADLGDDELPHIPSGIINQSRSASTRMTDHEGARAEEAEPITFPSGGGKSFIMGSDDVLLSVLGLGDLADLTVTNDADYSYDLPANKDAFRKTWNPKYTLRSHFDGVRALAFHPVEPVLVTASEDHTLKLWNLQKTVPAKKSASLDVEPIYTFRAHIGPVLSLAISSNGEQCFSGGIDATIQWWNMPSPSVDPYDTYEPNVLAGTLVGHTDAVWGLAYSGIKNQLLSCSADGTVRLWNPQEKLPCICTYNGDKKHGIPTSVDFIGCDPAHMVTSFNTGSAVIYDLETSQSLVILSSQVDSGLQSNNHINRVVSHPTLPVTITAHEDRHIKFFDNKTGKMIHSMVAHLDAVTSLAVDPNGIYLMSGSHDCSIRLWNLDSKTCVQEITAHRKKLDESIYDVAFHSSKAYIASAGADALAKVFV
UniProt Q13535: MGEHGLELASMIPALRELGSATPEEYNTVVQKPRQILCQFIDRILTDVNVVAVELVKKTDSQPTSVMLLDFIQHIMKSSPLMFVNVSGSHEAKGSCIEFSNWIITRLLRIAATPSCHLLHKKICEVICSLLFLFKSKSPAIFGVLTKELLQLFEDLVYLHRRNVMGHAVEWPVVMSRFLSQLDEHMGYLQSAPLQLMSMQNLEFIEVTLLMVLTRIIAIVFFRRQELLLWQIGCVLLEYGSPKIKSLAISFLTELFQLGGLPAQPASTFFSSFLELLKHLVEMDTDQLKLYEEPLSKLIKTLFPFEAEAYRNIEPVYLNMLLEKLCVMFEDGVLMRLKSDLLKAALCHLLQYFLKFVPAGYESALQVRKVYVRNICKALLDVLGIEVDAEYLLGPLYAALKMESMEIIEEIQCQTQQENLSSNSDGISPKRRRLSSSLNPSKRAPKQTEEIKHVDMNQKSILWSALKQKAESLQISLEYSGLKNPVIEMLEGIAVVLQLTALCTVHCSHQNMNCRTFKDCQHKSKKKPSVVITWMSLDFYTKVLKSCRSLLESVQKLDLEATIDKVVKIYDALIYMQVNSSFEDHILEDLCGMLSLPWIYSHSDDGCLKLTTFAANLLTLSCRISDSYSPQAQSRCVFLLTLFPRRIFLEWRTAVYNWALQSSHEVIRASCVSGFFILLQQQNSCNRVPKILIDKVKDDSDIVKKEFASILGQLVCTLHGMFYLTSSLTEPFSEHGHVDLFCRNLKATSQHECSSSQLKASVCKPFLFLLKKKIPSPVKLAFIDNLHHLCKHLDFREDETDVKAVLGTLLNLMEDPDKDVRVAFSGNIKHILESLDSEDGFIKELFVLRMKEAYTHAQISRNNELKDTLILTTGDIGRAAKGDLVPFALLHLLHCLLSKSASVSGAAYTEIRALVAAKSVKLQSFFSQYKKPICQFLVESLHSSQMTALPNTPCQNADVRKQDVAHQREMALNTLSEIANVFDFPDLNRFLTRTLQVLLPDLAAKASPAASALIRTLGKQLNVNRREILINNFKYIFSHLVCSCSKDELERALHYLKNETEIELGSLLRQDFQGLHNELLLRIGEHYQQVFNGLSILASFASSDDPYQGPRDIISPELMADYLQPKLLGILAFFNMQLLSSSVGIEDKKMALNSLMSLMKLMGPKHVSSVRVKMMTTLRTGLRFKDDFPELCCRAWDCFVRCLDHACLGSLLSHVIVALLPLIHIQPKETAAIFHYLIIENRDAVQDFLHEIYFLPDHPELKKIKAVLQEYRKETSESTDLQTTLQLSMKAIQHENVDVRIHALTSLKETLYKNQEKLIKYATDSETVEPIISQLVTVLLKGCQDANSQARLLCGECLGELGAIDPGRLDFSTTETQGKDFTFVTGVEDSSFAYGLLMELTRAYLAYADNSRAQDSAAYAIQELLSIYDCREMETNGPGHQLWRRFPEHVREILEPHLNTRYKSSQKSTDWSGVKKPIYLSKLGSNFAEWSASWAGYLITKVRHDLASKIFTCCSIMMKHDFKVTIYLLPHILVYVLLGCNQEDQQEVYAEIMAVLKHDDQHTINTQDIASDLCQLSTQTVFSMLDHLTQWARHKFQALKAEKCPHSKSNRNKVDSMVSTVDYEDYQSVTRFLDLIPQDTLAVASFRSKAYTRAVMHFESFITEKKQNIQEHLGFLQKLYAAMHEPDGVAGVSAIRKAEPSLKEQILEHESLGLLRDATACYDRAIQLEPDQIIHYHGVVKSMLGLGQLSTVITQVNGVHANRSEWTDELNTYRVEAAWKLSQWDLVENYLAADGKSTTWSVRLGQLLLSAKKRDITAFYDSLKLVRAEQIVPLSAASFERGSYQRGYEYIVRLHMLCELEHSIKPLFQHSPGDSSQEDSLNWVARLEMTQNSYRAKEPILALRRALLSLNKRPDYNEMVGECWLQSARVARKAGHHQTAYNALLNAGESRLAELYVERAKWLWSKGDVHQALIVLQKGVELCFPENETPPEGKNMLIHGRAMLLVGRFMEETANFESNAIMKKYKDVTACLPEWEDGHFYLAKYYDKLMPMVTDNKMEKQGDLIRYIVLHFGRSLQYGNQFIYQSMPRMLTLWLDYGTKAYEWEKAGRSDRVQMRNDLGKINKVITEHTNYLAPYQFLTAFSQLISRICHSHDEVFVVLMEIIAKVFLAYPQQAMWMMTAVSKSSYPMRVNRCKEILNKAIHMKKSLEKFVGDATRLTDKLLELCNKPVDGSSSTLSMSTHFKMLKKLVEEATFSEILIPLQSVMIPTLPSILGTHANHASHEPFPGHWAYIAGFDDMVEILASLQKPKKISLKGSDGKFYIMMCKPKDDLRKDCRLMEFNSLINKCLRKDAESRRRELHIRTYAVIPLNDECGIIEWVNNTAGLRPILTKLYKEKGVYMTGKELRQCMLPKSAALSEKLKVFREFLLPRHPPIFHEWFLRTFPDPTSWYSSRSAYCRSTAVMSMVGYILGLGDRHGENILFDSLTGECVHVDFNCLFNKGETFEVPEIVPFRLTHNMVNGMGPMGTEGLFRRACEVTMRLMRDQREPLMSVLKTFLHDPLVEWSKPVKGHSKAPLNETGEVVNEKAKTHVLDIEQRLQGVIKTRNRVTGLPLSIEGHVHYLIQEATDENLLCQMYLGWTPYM
UniProt Q13105: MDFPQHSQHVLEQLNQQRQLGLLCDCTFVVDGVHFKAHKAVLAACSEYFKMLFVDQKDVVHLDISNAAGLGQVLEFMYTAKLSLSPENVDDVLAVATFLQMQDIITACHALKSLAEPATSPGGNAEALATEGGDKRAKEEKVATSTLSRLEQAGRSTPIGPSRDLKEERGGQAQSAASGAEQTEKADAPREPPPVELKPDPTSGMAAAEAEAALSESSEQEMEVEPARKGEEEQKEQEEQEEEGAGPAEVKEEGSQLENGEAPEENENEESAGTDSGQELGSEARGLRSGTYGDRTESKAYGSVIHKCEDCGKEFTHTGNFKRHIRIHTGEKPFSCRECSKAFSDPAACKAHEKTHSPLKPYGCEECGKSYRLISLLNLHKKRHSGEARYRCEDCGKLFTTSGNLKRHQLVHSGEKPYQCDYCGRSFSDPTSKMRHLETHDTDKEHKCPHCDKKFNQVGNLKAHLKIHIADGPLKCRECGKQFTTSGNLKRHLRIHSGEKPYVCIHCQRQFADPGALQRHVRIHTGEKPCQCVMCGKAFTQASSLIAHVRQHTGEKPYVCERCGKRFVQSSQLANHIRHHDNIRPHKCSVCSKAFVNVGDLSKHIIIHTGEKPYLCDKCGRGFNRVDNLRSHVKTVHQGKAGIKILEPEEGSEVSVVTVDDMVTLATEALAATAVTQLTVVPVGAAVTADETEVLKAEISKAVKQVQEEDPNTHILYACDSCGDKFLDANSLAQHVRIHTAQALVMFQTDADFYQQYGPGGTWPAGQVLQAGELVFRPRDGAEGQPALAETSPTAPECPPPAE
UniProt Q06945: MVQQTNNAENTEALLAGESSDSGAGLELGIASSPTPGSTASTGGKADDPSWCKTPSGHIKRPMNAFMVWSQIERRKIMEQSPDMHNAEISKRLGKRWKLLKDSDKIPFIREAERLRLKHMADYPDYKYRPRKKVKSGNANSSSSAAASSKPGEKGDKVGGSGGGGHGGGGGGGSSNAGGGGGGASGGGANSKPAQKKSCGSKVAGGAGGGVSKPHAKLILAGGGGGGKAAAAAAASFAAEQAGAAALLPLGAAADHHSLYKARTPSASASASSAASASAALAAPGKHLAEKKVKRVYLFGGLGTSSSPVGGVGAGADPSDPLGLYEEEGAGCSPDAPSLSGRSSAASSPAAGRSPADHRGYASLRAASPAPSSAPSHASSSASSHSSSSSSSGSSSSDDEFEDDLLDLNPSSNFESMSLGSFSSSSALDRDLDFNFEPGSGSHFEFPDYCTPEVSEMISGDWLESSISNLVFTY
UniProt Q13371: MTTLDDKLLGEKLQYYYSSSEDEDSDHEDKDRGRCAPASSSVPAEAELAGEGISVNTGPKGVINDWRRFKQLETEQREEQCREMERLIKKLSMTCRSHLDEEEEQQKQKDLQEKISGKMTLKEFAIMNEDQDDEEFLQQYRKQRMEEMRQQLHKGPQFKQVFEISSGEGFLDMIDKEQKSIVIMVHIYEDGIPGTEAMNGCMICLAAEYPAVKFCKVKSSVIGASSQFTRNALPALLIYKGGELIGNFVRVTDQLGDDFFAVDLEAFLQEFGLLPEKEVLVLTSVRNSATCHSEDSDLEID
UniProt Q14019: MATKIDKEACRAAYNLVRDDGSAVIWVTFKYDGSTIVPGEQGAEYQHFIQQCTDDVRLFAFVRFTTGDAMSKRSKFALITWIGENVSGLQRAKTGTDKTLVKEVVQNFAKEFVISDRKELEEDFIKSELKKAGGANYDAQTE
UniProt Q06323: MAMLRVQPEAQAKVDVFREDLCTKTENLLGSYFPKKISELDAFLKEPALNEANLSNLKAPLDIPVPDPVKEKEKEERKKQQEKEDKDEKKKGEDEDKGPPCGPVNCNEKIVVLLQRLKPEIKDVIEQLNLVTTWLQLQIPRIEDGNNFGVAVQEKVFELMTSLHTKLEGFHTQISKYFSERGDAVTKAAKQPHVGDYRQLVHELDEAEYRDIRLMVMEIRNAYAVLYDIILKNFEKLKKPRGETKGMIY
UniProt Q13347, whole entry: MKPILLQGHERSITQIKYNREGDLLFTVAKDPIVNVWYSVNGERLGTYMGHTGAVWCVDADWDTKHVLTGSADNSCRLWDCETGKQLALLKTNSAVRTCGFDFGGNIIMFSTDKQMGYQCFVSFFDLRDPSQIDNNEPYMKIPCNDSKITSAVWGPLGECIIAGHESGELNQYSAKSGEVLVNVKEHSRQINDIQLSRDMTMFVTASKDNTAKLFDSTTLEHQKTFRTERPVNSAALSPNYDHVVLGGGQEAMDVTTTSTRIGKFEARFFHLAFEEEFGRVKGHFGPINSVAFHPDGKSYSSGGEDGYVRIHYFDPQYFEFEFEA
UniProt Q08752, whole entry: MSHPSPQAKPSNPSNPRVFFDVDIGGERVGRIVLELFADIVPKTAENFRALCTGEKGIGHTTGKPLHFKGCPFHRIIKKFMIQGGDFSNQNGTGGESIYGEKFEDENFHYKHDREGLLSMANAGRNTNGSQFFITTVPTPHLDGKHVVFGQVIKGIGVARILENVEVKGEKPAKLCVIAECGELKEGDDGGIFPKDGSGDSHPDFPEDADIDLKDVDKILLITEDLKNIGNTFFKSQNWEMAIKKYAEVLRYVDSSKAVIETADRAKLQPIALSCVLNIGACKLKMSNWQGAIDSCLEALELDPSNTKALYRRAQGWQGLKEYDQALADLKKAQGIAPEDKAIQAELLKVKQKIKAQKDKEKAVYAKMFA
UniProt Q13530: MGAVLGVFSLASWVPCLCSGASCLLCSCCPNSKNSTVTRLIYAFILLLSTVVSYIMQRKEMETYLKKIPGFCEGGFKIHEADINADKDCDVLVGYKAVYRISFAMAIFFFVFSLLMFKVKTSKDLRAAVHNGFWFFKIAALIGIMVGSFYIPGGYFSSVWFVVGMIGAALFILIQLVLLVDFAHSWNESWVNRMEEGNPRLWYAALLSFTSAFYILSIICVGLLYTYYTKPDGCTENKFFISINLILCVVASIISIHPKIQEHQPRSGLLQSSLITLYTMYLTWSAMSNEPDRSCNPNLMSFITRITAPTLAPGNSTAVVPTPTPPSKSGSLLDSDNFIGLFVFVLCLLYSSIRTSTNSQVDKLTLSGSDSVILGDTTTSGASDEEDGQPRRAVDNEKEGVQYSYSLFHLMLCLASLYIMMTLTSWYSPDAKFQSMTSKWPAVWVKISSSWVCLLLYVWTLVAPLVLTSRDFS

| Target | NP40-soluble protein abundance (concentration: 1mM) | NP40-soluble protein abundance (concentration: 2mM) | NP40-soluble protein abundance (concentration: 4mM) | NP40-soluble protein abundance (concentration: 6mM) | NP40-soluble protein abundance (concentration: 8mM) | NP40-soluble protein abundance (concentration: 10mM) |
| --- | --- | --- | --- | --- | --- | --- |
| UniProt Q13033 and related entries | 1.01 ± 0.0061 | 0.995 ± 0.037 | 0.992 ± 0.031 | 0.993 ± 0.057 | 1.01 ± 0.046 | 1.02 ± 0.043 |
| UniProt Q13535 and related entries | 0.949 ± 0.18 | 1.02 ± 0.1 | 0.955 ± 0.099 | 1.06 ± 0.069 | 0.935 ± 0.055 | 0.971 ± 0.048 |
| TRIM26 (UniProt Q12899) | 0.886 ± 0.11 | 0.839 ± 0.16 | 0.839 ± 0.11 | 0.778 ± 0.1 | 0.717 ± 0.055 | 0.778 ± 0.048 |
| UniProt Q13105 and related entries | 1.12 ± 0.012 | 1.07 ± 0.056 | 1.12 ± 0.062 | 1.31 ± 0.24 | 1.23 ± 0.069 | 1.28 ± 0.033 |
| UniProt Q02241 and related entries | 1.17 ± 0.049 | 1.19 ± 0.025 | 1.22 ± 0.016 | 1.21 ± 0.017 | 1.23 ± 0.023 | 1.23 ± 0.032 |
| CRYZ (UniProt Q08257) | 0.979 ± 0.085 | 0.988 ± 0.092 | 0.94 ± 0.068 | 0.926 ± 0.12 | 0.95 ± 0.054 | 0.979 ± 0.074 |
| UniProt Q13472 and related entries | 0.988 ± 0.017 | 0.981 ± 0.039 | 1.01 ± 0.026 | 1.006 ± 0.0087 | 1.04 ± 0.018 | 1.03 ± 0.035 |
| NUCB1 (UniProt Q02818) | 0.954 ± 0.13 | 0.974 ± 0.059 | 0.954 ± 0.11 | 0.971 ± 0.18 | 0.999 ± 0.17 | 0.9216 ± 0.0068 |
| CENPE (UniProt Q02224) | 0.939 ± 0.044 | 0.907 ± 0.012 | 0.909 ± 0.032 | 0.936 ± 0.058 | 0.922 ± 0.048 | 0.884 ± 0.016 |
| SP4 (UniProt Q02446) | 0.936 ± 0.039 | 0.942 ± 0.059 | 0.955 ± 0.019 | 0.96 ± 0.099 | 0.909 ± 0.037 | 0.961 ± 0.06 |
| CBX3 (UniProt Q13185) | 0.916 ± 0.04 | 0.913 ± 0.028 | 0.856 ± 0.023 | 0.941 ± 0.041 | 0.9 ± 0.011 | 0.901 ± 0.045 |
| UniProt Q01518 and related entries | 0.946 ± 0.051 | 0.921 ± 0.026 | 0.87 ± 0.046 | 0.929 ± 0.027 | 0.873 ± 0.05 | 0.892 ± 0.028 |
| RNASEL (UniProt Q05823) | 1.118 ± 0.0075 | 1.13 ± 0.013 | 1.139 ± 0.0069 | 1.11 ± 0.02 | 1.1 ± 0.063 | 1.1 ± 0.015 |
| SOX4 (UniProt Q06945) | 1 ± 0.12 | 0.959 ± 0.034 | 0.966 ± 0.051 | 1.04 ± 0.086 | 0.971 ± 0.023 | 0.953 ± 0.068 |
| UniProt Q12904 | 0.989 ± 0.071 | 0.947 ± 0.067 | 0.895 ± 0.054 | 0.987 ± 0.21 | 0.944 ± 0.094 | 0.916 ± 0.074 |
| TMED1 (UniProt Q13445) | 1.06 ± 0.12 | 1.02 ± 0.062 | 1.03 ± 0.073 | 0.986 ± 0.12 | 1 ± 0.056 | 0.98 ± 0.036 |
| UniProt Q13042 and related entries | 1.05 ± 0.093 | 1.02 ± 0.047 | 0.996 ± 0.018 | 0.898 ± 0.015 | 1.06 ± 0.058 | 1.01 ± 0.07 |
| PDCL (UniProt Q13371) | 0.983 ± 0.03 | 0.961 ± 0.028 | 0.959 ± 0.026 | 0.992 ± 0.07 | 1 ± 0.067 | 0.994 ± 0.074 |
| DSG2 (UniProt Q14126) | 0.954 ± 0.041 | 0.984 ± 0.025 | 1.01 ± 0.052 | 1 ± 0.046 | 0.943 ± 0.02 | 0.96 ± 0.051 |
| UniProt Q06265 and related entries | 1.04 ± 0.054 | 1.05 ± 0.059 | 1.13 ± 0.04 | 1.1 ± 0.082 | 1.18 ± 0.032 | 1.2 ± 0.078 |
| COTL1 (UniProt Q14019) | 0.882 ± 0.014 | 0.908 ± 0.058 | 0.8537 ± 0.0072 | 0.888 ± 0.058 | 0.863 ± 0.022 | 0.863 ± 0.038 |
| UniProt Q13564 and related entries | 1.01 ± 0.043 | 1.02 ± 0.022 | 1 ± 0.025 | 1 ± 0.059 | 0.977 ± 0.018 | 0.984 ± 0.025 |
| UniProt Q06323 and related entries | 0.886 ± 0.15 | 0.836 ± 0.094 | 0.86 ± 0.061 | 0.858 ± 0.059 | 0.909 ± 0.027 | 0.793 ± 0.093 |
| SLFN5 (UniProt Q08AF3) | 1.16 ± 0.02 | 1.18 ± 0.027 | 1.18 ± 0.044 | 1.13 ± 0.061 | 1.18 ± 0.072 | 1.22 ± 0.069 |
| EIF3I (UniProt Q13347) | 1.03 ± 0.044 | 1.03 ± 0.022 | 1.07 ± 0.015 | 1.18 ± 0.023 | 1.296 ± 0.011 | 1.35 ± 0.024 |
| PLAUR (UniProt Q03405) | 1.16 ± 0.14 | 1.16 ± 0.15 | 1.17 ± 0.2 | 1.21 ± 0.16 | 1.1 ± 0.12 | 1.11 ± 0.098 |
| PPID (UniProt Q08752) | 0.952 ± 0.023 | 0.946 ± 0.013 | 0.916 ± 0.013 | 0.957 ± 0.017 | 0.904 ± 0.034 | 0.905 ± 0.034 |
| LRP1 (UniProt Q07954) | 0.987 ± 0.13 | 0.947 ± 0.054 | 0.987 ± 0.12 | 0.958 ± 0.091 | 0.961 ± 0.088 | 0.918 ± 0.099 |
| UniProt Q13530 and related entries | 1.01 ± 0.093 | 1.05 ± 0.041 | 0.98 ± 0.034 | 0.973 ± 0.059 | 0.991 ± 0.072 | 0.937 ± 0.041 |
| UniProt Q06330 and related entries | 0.97 ± 0.055 | 1.04 ± 0.039 | 1.04 ± 0.011 | 0.942 ± 0.056 | 0.99 ± 0.018 | 1.06 ± 0.018 |

A section from the list above, for reference:

| Target | NP40-soluble protein abundance (concentration: 1mM) | NP40-soluble protein abundance (concentration: 2mM) | NP40-soluble protein abundance (concentration: 4mM) | NP40-soluble protein abundance (concentration: 6mM) | NP40-soluble protein abundance (concentration: 8mM) | NP40-soluble protein abundance (concentration: 10mM) |
| --- | --- | --- | --- | --- | --- | --- |
| UniProt Q06265 and related entries | 1.04 ± 0.054 | 1.05 ± 0.059 | 1.13 ± 0.04 | 1.1 ± 0.082 | 1.18 ± 0.032 | 1.2 ± 0.078 |
| COTL1 (UniProt Q14019) | 0.882 ± 0.014 | 0.908 ± 0.058 | 0.8537 ± 0.0072 | 0.888 ± 0.058 | 0.863 ± 0.022 | 0.863 ± 0.038 |

From the supplement of paper PMC6411743
